Source: patent publication US12202805B2, “Process for preparing (5S)-{[2-(4-carboxyphenyl)ethyl] |2-(2-{|3-chloro-4'-(trifluoromethyl)biphenyl-4-yl]methoxy}phenyl)ethyl]aminol-5,6,7,8-tetrahydroquinoline-2-carboxylic acid and its crystalline forms for use as pharmaceutically active compound” (Bayer Aktiengesellschaft, priority 2021, dated 2025)

Experiment: Filter experiments for deposited lung dose in the PAH minipig model and prediction of human dose
Assay type: in vivo
Experimental: The anesthetized thromboxane A2 challenged PAH-minipig model (see experimental part E-1) is considered to be the most relevant and sensitive model for the prediction of the human minimal effective and effective doses (MED, ED). To determine effective LDs, experiments were repeated with the difference that absorbing filters were attached at the end of the tubes to determine the deposited lung dose. […] Assuming a minimal effective ND of 3 μg/kg (5% reduction in PAP) the minimal effective deposited LD is considered as 0.15 μg/kg.
The nominal doses of 3, 10, 30 and 100 μg/kg of the minipig model were multiplied by the filter deposition factor of 5% resulting in 0.15, 0.5, 1.5 and 5 μg/kg lung deposited doses in the minipig. These values were multiplied by 60 kg to achieve the lung dose in humans. Thus, the FPD reflecting the PAP reduction for a 60 kg human are calculated to be 9, 30, 90 and 300 μg.
Thus, via a direct up-scaling from minipig, the predictive MED (5% PAP reduction) for a human based on a 60 kg body weight is calculated to be 9 μg LDD, not considering protein binding within the respiratory tract. As a surrogate for unbound concentrations, which are the likely active concentrations in the lung, we considered respective differences in fractions unbound in plasma of minipig and human. This consideration results in a minimum effective lung dose (LD) for a 60 kg participant of 41 μg LDD for the assumed 5% reduction on PAP. Consequently, the predictive minimal human effective dose is in the range from 9 μg LDD to 41 μg LDD based on a 60 kg body weight (see FIG. 3).
In order to generate a human dose estimate, experiments in the PAH minipig model for comparative example 11 were repeated with the difference that absorbing filters were attached at the end of the tubes to determine the deposited lung dose. […] The arithmetic mean of the aerosol fraction deposited on the filters is 5% based on all results of the filter experiments, resulting in relative lung deposited doses of about 0.15 μg/kg (3 μg/kg nominal dose), 0.5 μg/kg (10 μg/kg nominal dose), 1.5 μg/kg (30 μg/kg nominal dose) and 5 μg/kg (100 μg/kg nominal dose). Assuming a minimal effective nominal dose of 3 μg/kg for a 5% reduction in PAP and a mean nebulization efficiency of 5%, the minimal effective deposited lung dose is considered as 0.15 μg/kg based on the PAH minipig model. Therefore, for a human patient of 60 kg body weight a minimal effective lung deposited dose of 9-41p g, depending on whether or not an effect of different protein binding (see table 28) is postulated. Considering 100 μg/kg as effective dose in the minipig model, 300-1370 μg lung deposited dose is postulated as effective dose, again depending on the consideration of different interspecies protein binding.

O=C(O)c1ccc(CCN(CCc2ccccc2OCc2ccc(-c3ccc(C(F)(F)F)cc3)cc2Cl)[C@H]2CCCc3nc(C(=O)O)ccc32)cc1 [example 2, (5S)—{[2-(4-Carboxyphenyl)ethyl][2-(2-{[3-chloro-4′-(trifluoromethyl)biphenyl-4-yl]methoxy}phenyl)-ethyl]amino}-5,6,7,8-tetrahydroquinoline-2-carboxylic acid as Monohydrate II]
relative lung deposited dose (3 μg/kg nominal dose): about 0.15 μg/kg | relative lung deposited dose (10 μg/kg nominal dose): ~0.5 µg/kg | relative lung deposited dose (30 μg/kg nominal dose): ~1.5 µg/kg | relative lung deposited dose (100 μg/kg nominal dose): ~5 µg/kg
